# PubChem BioAssay AID686943 | Drosophila RNAi Screening Center – 2013
# Assay: 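Knockdowns that increase or decrease active ERK after insulin receptor stimulation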 (primary screen)
# System: Drosophila S2R+ haemocyte-like cells expressing YFP-tagged ERK (Rolled)
# Reagent: long dsRNA against Drosophila genes
# Treatment: insulin stimulation versus unstimulated cells; dose and duration not given
# Measured: 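Antibody staining for doubly phosphorylated ERK divided by ERK-YFP signal, as plate z-scores, in insulin-treated and untreated cells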
# Reading the numbers: replicate 1, z-score of dpERK with insulin and replicate 2, z-score of dpERK with insulin: higher = more active ERK per ERK-YFP after insulin; replicate 1, z-score of dpERK under basal conditions: higher = more basal active ERK per ERK-YFP; replicate 1, z-score of ERK-YFP with insulin: higher = more YFP-tagged ERK signal
# The deposit covers about 23,000 reagents; below is an unselected part of those with a known target gene and a result. 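Extra replicates exist only for a retested subset of genes; insulin dose and duration not given; both raised and lowered dpERK matter.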 The numbers tell different reagents against one gene apart. A plus sign joins genes that one reagent is predicted to hit. Not given: the amount of reagent, the time to read-out.
The first 2 entries, ahead of the listing:
target,reagent,"replicate 1, z-score of dpERK with insulin","replicate 2, z-score of dpERK with insulin","replicate 1, z-score of dpERK under basal conditions","replicate 1, z-score of ERK-YFP with insulin"
CG6310,1,0.53,0.44,0.13,0.2
ph-d,1,-1.41,-1.77,-1.46,-1.12

Main list, from the first entry:
target,reagent,"replicate 1, z-score of dpERK with insulin","replicate 2, z-score of dpERK with insulin","replicate 1, z-score of dpERK under basal conditions","replicate 1, z-score of ERK-YFP with insulin"
CG6310,1,0.53,0.44,0.13,0.2
ph-d,1,-1.41,-1.77,-1.46,-1.12
CG15203,1,0.31,0.11,-0.01,0.2
CG2063,1,1.53,0.61,0.8,-0.77
CG10747,1,0.37,0.52,-0.27,-0.02
CG32344,1,-0.16,-0.01,-2.24,-1.07
BCL7-like,1,0.45,0.42,-0.16,-0.03
CG10359,1,0.6,-0.06,0.47,0.01
CAH9,1,0.06,-0.3,1.49,1.08
Rh5,1,-0.29,-0.41,0.6,0.1
CG5902,1,0.31,0.57,0.4,0.44
CG14220,1,-0.75,1.97,-0.95,1.97
Syx7,1,-0.36,0.11,0.05,0
Jheh3,1,0.41,0.49,1.93,0.5
CG6865,1,-1.79,-1.42,0.65,0.3
CG31643,1,0.3,1.24,-0.1,-0.35
Obp19d,1,-0.41,0.25,0.83,0
sr,1,0.69,0.5,-0.23,0.1
sr,2,-1.67,-4.69,-1.65,0.53
SmB,1,1.48,1.22,-3.14,-6.18
Snmp2,1,-0.29,0.53,-0.55,-0.09
Snmp2,2,-0.4,0.66,0.51,0.42
bt,1,0.63,-0.15,-0.17,-0.25
bt,2,-0.33,-0.33,-0.03,-0.23
CG14234,1,-0.29,0.77,0.19,0.42
CG14234,2,-0.81,-0.19,-0.07,-0.07
CG6813,1,0.2,0.3,1.05,0.41
CG11566 (retired record) + stg1,1,-1.79,-2.24,-2.69,1.36
CG11566 (retired record) + stg1,2,1.44,1.27,-0.14,-2.55
CG11566 (retired record) + stg1,3,-0.95,-1.19,-0.27,0.42
CG11566 (retired record) + stg1,4,0.21,0.15,-0.42,0.26
Or88a,1,-0.06,0,0.43,0.8
CG31098,1,-0.08,-0.14,0.57,0.21
CG4553,1,0.12,-0.11,0.62,0.65
Ipk2,1,0.52,-1.1,0.82,0.53
CG7523,1,-0.64,-0.88,-0.5,-0.4
tup,1,-0.22,0.53,-0.26,0.52
key,1,-1.47,-0.79,3.17,0.61
Bicra,1,-0.1,0,0.8,-1.03
